Data taken from PubChem BioAssay AID2718 (Broad Institute, 2010).
Screen size: about 320,000 compounds; about 480 (0.15%) were called active. The shares of active, inactive and inconclusive entries below differ from those in the screen. No stated cut-off is given here; in the data, active means inhibition above about 26% (passing the limit was not always enough); inconclusive means no clear call, values can overlap the other calls.

By UniProt entry, the sequences of proteins in these tests, tags left out. Where a name states a change or a piece, a line headed by the entry shows the natural chain unless it says otherwise.
UniProt O15379: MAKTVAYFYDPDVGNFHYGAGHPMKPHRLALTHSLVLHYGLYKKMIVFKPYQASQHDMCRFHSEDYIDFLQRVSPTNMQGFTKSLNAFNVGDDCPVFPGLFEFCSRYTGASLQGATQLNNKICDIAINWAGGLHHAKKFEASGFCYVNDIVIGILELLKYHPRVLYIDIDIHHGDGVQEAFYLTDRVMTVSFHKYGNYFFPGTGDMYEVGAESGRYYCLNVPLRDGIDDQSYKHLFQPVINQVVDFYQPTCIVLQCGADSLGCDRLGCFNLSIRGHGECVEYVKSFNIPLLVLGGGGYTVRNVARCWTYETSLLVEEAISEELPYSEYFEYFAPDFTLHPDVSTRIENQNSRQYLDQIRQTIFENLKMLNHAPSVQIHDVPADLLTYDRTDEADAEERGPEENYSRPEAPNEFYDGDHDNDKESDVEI

target: Histone deacetylase 3 (Homo sapiens) (UniProt O15379); assay: HDAC3 deacetylase inhibitors, primary screen, biochemical, fluorescence, cell-free homogeneous (AID 2718); conditions: recombinant HDAC3, fluorogenic peptide/trypsin coupled, at 8.3 µM, active compounds read high

| Compound | inhibition |
| --- | --- |
| Nc1cccc2c1C(=O)N(C(=O)c1ccc(S(=O)(=O)N3CCCCCC3)cc1)C2=O | inconclusive: 26.5% |
| CCOC(=O)C(CC)(CCC(=O)OC)c1csc(Nc2ccccc2O)n1 (stereo not given) | inactive: 6.46% |
| CCc1nnc2c(N(C)C)nc3ccccc3n12 | inconclusive: 27.1% |
| S=C1SCN(CCN2CCOCC2)CN1Cc1ccccc1 | inconclusive: 23.4% |
| c1ccc(Cc2ccc(OCCn3ccnc3)cc2)cc1 | inconclusive: 16.8% |
| CN(C(=O)c1cccc(S(=O)(=O)N2CCCCC2)c1)C1CCS(=O)(=O)C1 (stereo not given) | inconclusive: 22.2% |
| Cc1cc(NC(=O)c2cccc(S(=O)(=O)Nc3cccc(C(=O)O)c3)c2)no1 | inactive: 4.66% |
| COc1cccc(CN(C)C(=O)c2cc(COc3ccc(-n4cncn4)cc3)on2)c1 | inactive: -1.42% |
| COc1ccc(C(=O)C2CCCN(C(=O)c3noc4c3CCCC4)C2)cc1F (stereo not given) | inconclusive: 21.8% |
| CC(C)c1ccc2c(c1)C1(NN=C(c3ccccc3)S1)C(=O)N2 (stereo not given) | inactive: 3.01% |
| CCN1CCN(CC(=O)Nc2ccc(S(=O)(=O)N3C(C)CCCC3C)cc2)CC1 (stereo not given) | inactive: -3.51% |
| CC(C)c1nnc(NC(=O)CCC(=O)N2CCN(Cc3ccccc3)CC2)s1 | inconclusive: 26% |
| CCNC(=O)CN1c2cccc3cccc(c23)S1(=O)=O | inconclusive: 15.6% |
| O=C1c2cccnc2C(=O)N1Cc1ccc(S(=O)(=O)NCc2ccco2)cc1 | inconclusive: 17% |
| CCCCNS(=O)(=O)c1ccc(NC(=O)C(Sc2ccccc2)c2ccccc2)cc1 (stereo not given) | inconclusive: 25.5% |
| Cc1ccc(OCCCSc2n[nH]c(N)n2)cc1 | inconclusive: 28% |
| CNC(=O)c1ccsc1NC(=O)c1ccc(Cl)s1 | inactive: 7.14% |
| O=C(CSC1=NS(=O)(=O)c2cc(Cl)ccc2N1)NCc1ccccc1 | inconclusive: 18.9% |
| C#CCOCCOCCOCCNc1nc(N2CCN(C(=O)CCCCCCCCCCNC(=O)[C@H](CCCCN)n3cc(C[C@@H](C)CC)nn3)CC2)nc(N2CCN(C(=O)CCCCCCCCCCNC(=O)[C@H](CCCN=C(N)N)n3cc(C[C@@H](C)CC)nn3)CC2)n1 | inconclusive: 51.3% |
| C#CC(C)OC(=O)C(C)NC(=O)c1ccccc1 (stereo not given) | inactive: 3.47% |
| O=C(c1cccc(C(F)(F)F)c1)N1CCOC12CCN(c1ncc(C(F)(F)F)cc1Cl)CC2 | inconclusive: 20.2% |
| CCCn1c(CNC(=O)Cc2ccccc2)nc2ccccc21 | inconclusive: 13.1% |

| Compound | inhibition |
| --- | --- |
| CSCCC(NC(=O)c1ccccc1Cl)C(=O)NCCc1ccccn1 (stereo not given) | inconclusive: 15.3% |
| COc1ccc(S(=O)(=O)N2CCCCCC2)cc1C(=O)N(C)Cc1ccc(C(C)(C)C)cc1 | inconclusive: 26.4% |
| CC(=O)CSc1nnc(Cc2ccc([N+](=O)[O-])cc2)o1 | active: 27.9% |
| CCN(CC)CCN(C(=O)c1ccc2ccccc2c1)c1nc2ccc(F)cc2s1 | inconclusive: 23.3% |
| COc1ccccc1N1CCN(C(=O)c2cc(C3CC3)on2)CC1 | inconclusive: 10.1% |
| O=C(OCC1CC(c2ccccn2)=NO1)c1ccc(Br)cc1 (stereo not given) | inconclusive: 15.2% |
| Cc1ccc2nc(-c3cccs3)oc(=O)c2c1 | inactive: -0.843% |
| COc1cc2oc3ccc(C#Cc4ccccn4)cc3c(=O)c2cc1OC | inactive: -1.25% |
| Cc1ccc(-n2nc3c(c2NC(=O)c2c(F)cccc2Cl)CS(=O)(=O)C3)cc1C | inconclusive: 15.5% |
| Cc1cc(C)cc(C(=O)NC(CC(N)=O)c2ccc(NCCN3CCOCC3)c([N+](=O)[O-])c2)c1 (stereo not given) | inactive: 2.93% |
| O=C(C1=C[C@H](c2ccc(C(F)(F)F)cc2)C[C@H](OCc2ccc(CO)cc2)O1)N1CCN(Cc2ccccc2)CC1 | active: 33.5% |
| C/C(=N\NC(=O)c1cccc2ccccc12)c1cccs1 | inconclusive: 16.6% |
| CC1CCc2c(sc3nc(CN4CCOCC4)nc(N4CCc5ccccc5C4)c23)C1 (stereo not given) | inconclusive: 16.9% |
| COc1ccc(S(=O)(=O)CC(=O)Nc2nnc(C(F)(F)F)s2)cc1 | inconclusive: 18.5% |
| O=C(NCCC1=CCCCC1)c1ccc(=O)oc1 | inconclusive: 22.5% |
| C/C=C(/C)C(=O)Nc1cccc(C2=NOC3(C2)C[C@@H](C(N)=O)N(C(=O)CC(c2ccccc2)c2ccccc2)C3)c1 (stereo not given in full) | inconclusive: 27.2% |
| COc1cc(OC)cc(C(=O)NNC(=S)NC(=O)c2cccnc2)c1 | inconclusive: 15% |
| CC(C)(C)C(=O)Nc1cccc(-c2nnc(-c3cccc(NC(=O)C(C)(C)C)c3)o2)c1 | inconclusive: 43% |
| C[n+]1cccc(C(=O)NCC2CCCO2)c1 (stereo not given) | inactive: 5.73% |
| COc1cccc(NC(=O)CN(C)C(=O)c2cc3ccccc3cc2OC)c1 | inconclusive: 20.2% |
| CC(C)c1ccc(C(=O)Nc2nnc(S(=O)(=O)N3CCOCC3)s2)cc1 | inconclusive: 16% |
| c1ccc(N2CCN(c3nc(-c4ccccn4)nc4ccccc34)CC2)cc1 | inconclusive: 27.2% |

5 compounds already listed, sorted by molar mass, ascending:

| Compound | inhibition |
| --- | --- |
| COc1ccccc1N1CCN(C(=O)c2cc(C3CC3)on2)CC1 | inconclusive: 10.1% |
| CC(C)c1ccc(C(=O)Nc2nnc(S(=O)(=O)N3CCOCC3)s2)cc1 | inconclusive: 16% |
| CCN(CC)CCN(C(=O)c1ccc2ccccc2c1)c1nc2ccc(F)cc2s1 | inconclusive: 23.3% |
| Cc1ccc(-n2nc3c(c2NC(=O)c2c(F)cccc2Cl)CS(=O)(=O)C3)cc1C | inconclusive: 15.5% |
| CC1CCc2c(sc3nc(CN4CCOCC4)nc(N4CCc5ccccc5C4)c23)C1 (stereo not given) | inconclusive: 16.9% |

Additional structures.

| Compound | inhibition |
| --- | --- |
| FC(F)(F)c1cc(-c2ccccc2)nc(N2CCOCC2)n1 | inactive: 6.45% |
| O=C(NC(=S)Nc1ccccc1Cl)c1cncc(Br)c1 | inactive: -5.91% |
| COc1ccc(CNC(=O)CCCn2nc(C)c3c(C)n(-c4ccc(C)cc4)nc3c2=O)cc1OC | inconclusive: 13.5% |
| CC(C)=C(NC(=O)c1ccccc1)C(=O)N/N=C/c1ccc(O)cc1 | inactive: 3.51% |
| CNc1cccccc1=S | inconclusive: 15.6% |
| Cc1ccc(C(C[N+](=O)[O-])c2c(C)cc3ccccn23)cc1 (stereo not given) | inconclusive: 22.6% |
| Cc1onc(-c2ccccc2)c1C(=O)NC(C)c1ccccc1 (stereo not given) | inactive: -1.2% |
| O=C(Nc1ccc(F)cc1)c1ccccc1 | inconclusive: 21.7% |
| O=C(NNC(=O)c1cc2c(s1)CCCC2)c1ccccc1 | inconclusive: 16.3% |
| Nc1c(Cl)cc(C2=NCCn3nc4ccccc4c32)cc1Cl | inactive: 2.23% |
| OC(COCc1ccccc1F)CN1CCCCC1 (stereo not given) | inactive: -1.03% |
| CC(=O)Nc1ccc(S(=O)(=O)Nc2ccc3c(c2)CCC3)cc1 | inconclusive: 11.9% |
| CCCCCOP(=O)(OCCCCC)C1(NS(=O)(=O)c2ccccc2)C=CC(=O)c2ccccc21 (stereo not given) | inconclusive: 23.5% |
| CN(C)S(=O)(=O)n1cc(/C=C(\NC(=O)c2ccccc2F)C(=O)NCCCN2CCOCC2)c2ccccc21 | inconclusive: 16% |
| CN1CCN(c2nc(-c3ccc(Cl)c(Cl)c3)nc3ccccc23)CC1 | inactive: -3.21% |
| Cc1ccc(-c2nnc(SCC(=O)N3CCCC3)o2)cc1 | inconclusive: 13.1% |
| COC(=O)[C@]1(Cc2ccccc2)N[C@H](c2ccc(-c3cccc(Cl)c3)cc2)[C@@H]2C(=O)N(C)C(=O)[C@@H]21 | inconclusive: 29.1% |
| O=[N+]([O-])c1cc(/C=N/N2CCN(Cc3ccccc3)CC2)ccc1Cl | inconclusive: 24.5% |
| Cn1c(=O)c(C(=O)CSc2nnc(Nc3ccccc3)s2)c(N)n(Cc2ccccc2)c1=O | inconclusive: 28.4% |
| CC1=C(C(=O)Nc2ccc([N+](=O)[O-])cc2)C(c2cccc(C(F)(F)F)c2)NC(=S)N1c1ccccc1 (stereo not given) | inconclusive: 9.66% |
| C#CCOCCOCCOCCNc1nc(N2CCN(C(=O)CCCCCCCCCCNC(=O)[C@H]([C@@H](C)CC)n3cc(CCCCN=C(N)N)nn3)CC2)nc(N2CCN(C(=O)CCCCCCCCCCNC(=O)[C@H](CO)n3cc(CCCSC)nn3)CC2)n1 | active: 65% |
| CCSc1nnc(NC(=O)c2ccccn2)s1 | inconclusive: 14.6% |

| Compound | inhibition |
| --- | --- |
| Cc1cc(N)ccc1-c1cc2ccccc2oc1=O | inactive: 0.514% |
| CCn1c(=O)n(CC)c2cc(N3CCCC3)c(NC(=O)c3ccccc3F)cc21 | inactive: 1.53% |
| CC(=O)Nc1sc(C)c(C)c1C(=O)OCCOc1ccccc1 | inconclusive: 13.1% |
| CN=C1c2cc3cc(OC)ccc3n2CCN1C | inconclusive: 21.6% |
| Cc1nc(NCC2CCCO2)c2nnn(Cc3ccccc3Cl)c2n1 (stereo not given) | inconclusive: 32.8% |
| COc1cc(/C=C2/C(=O)NN(c3cccc(F)c3)C2=O)ccc1OC(=O)c1ccco1 | inconclusive: 25.7% |
| O=C(NCC1CCOCC1)c1cc(COc2cccc(C(F)(F)F)c2)on1 | inconclusive: 25.7% |
| C=CCn1cc(/C=C/c2cc[n+](C)cc2)c2ccccc21 | inconclusive: 15.2% |
| O=C(CCCCCN1C(=O)c2ccccc2C1=O)Nc1nccs1 | inconclusive: 17.3% |
| COc1cccc(CC2(CO)CCCN(Cc3ccc(OC)c(C)c3OC)C2)c1 (stereo not given) | inactive: -5.94% |
| O=c1[nH]c2cccnc2n(CCNc2ncc(C(F)(F)F)cc2Cl)c1=O | inconclusive: 24.9% |
| CCc1ccc(CNc2ccc3c(c2)ncn3CC)cc1 | inactive: -0.0709% |
| COc1ccccc1NC(=O)Nc1nnc(Cc2ccc(F)cc2)s1 | inconclusive: 24.8% |
| CCOC(=O)c1sc(Nc2cccc(C)c2C)nc1C | inconclusive: 22.8% |
| CCOc1ccccc1NC(=O)Cn1c(C)cc(COC)c(C#N)c1=O | inconclusive: 9.66% |
| COc1cc2ccccc2cc1C(=O)OCC(=O)N(CC(C)C)c1c(N)n(Cc2ccccc2)c(=O)[nH]c1=O | inactive: -1.64% |
| N#Cc1cccc(C(c2nnnn2C2CCCC2)N2CCCCCC2)c1 (stereo not given) | inconclusive: 30.5% |
| O=C(O)c1ccc(-n2c(-c3cc(C4CC4)[nH]n3)n[nH]c2=S)cc1 | inconclusive: 19.3% |
| O=C(N1CCCC1)n1c(Cc2ccccc2)nc2ccccc21 | inconclusive: 16.4% |
